# Reference: PubChem BioAssay AID493014 (National Center for Advancing Translational Sciences (NCATS), 2011)
# Some of the results follow. Shown are side measurements of this screen, not its main read-out; they come without a call. Compounds called inactive in the main read-out are mostly missing here. The note in brackets gives the kind of curve behind each potency; many fits are weak.
# Experiment: qHTS Assay to Find Inhibitors of Chronic Active B-Cell Receptor Signaling
# Conditions: ABC-DLBCL IkBa-CBG/CBR reporter, luminescence ratio (green luciferase fused to IkBa over red control in TMD8 lymphoma cells), 4 h
# Procedure, shortened: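 Cell line TMD8 (human ABC DLBCL), stably expressing tet-inducible CBG68-IkBa fusion and CBR; IMDM/0.5% FBS; cpd up to 46 uM; dox induction, 4 h, 37C/5% CO2; dual luminescence; green/red ratio; MG132 control.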
# [1] = measured here: CBR red luminescence, cell number
# [2] = measured here: IkBa-CBG green luminescence
structure (smiles),measurement,setting,value
Cc1nc(SC2CCOC2=O)c2c(C)c(C)sc2n1 (stereo not drawn),AC50,[1],"22.4 µM [rising, partial curve, poor fit]"
CN(C)c1ccc2nc3ccc(=[N+](C)C)cc-3sc2c1,AC50,[1],"7.08 µM [rising, partial curve, poor fit]"
COc1ccccc1NC(=O)CNC(=O)c1ccc(Br)o1,AC50,[1],"11.2 µM [falling, partial curve]"
Cc1c(C(=O)N2CC(C)OC(C)C2)oc2ccccc12 (stereo not drawn),AC50,[1],"29.1 µM [rising, single point]"
COc1cc(/C=C/C(=O)N2CCC=CC2=O)cc(OC)c1OC,AC50,[1],"8.2 µM [falling, partial curve]"
COc1ccc(/C=C2\SC(=O)N(CCNC(=O)Cn3[nH]c(=O)c4ccccc4c3=O)C2=O)cc1,AC50,[1],"18.4 µM [falling, partial curve]"
CC(Oc1ccc(C(=O)NCCc2ccccc2)cc1)C(=O)O (stereo not drawn),AC50,[1],"29.1 µM [falling, single point]"
CC[C@H](C)[C@@H](CN[C@H](C)CNC)NCCC(c1ccccc1)c1ccccc1,AC50,[1],"14.1 µM [falling, single point]"
Cc1cccc(-c2noc(CCC(=O)NCC3CCCO3)n2)c1 (stereo not drawn),AC50,[1],"0.116 µM [rising, full curve, poor fit]"
O=C(NCCc1cccc(C(F)(F)F)c1)C1CCC(=O)N(Cc2ccc(Cl)cc2)C1 (stereo not drawn),AC50,[1],"25.1 µM [falling, single point]"
CC(C)(C)NC(=O)NC(=O)COC(=O)CNC(=O)c1cc(Cl)cc([N+](=O)[O-])c1,AC50,[1],"35.5 µM [rising, single point]"
CN(CC(=O)Nc1ccc(F)cc1)C(=O)c1ccc(OCc2cn3ccccc3n2)cc1,AC50,[1],"23.1 µM [falling, single point]"
O=C(Nc1ccccc1Cl)OC1CCCCC1,AC50,[1],"0.447 µM [rising, full curve]"
C[C@@H]1CN([C@@H](C)CO)C(=O)c2cc(NC(=O)CCN3CCOCC3)ccc2O[C@@H]1CN(C)C(=O)Nc1ccccc1,AC50,[1],"10.3 µM [rising, partial curve, poor fit]"
CCN(CC)C(=S)SCC(=O)Nc1ccc(F)cc1,AC50,[1],"7.08 µM [falling, partial curve, poor fit]"
CCN(CC(=O)Nc1ccc2c(c1)OCCO2)C(=O)CCOc1ccccc1,AC50,[1],"8.2 µM [falling, partial curve]"
COc1ccc(CCNc2ncnc3c2c(-c2ccccc2)cn3-c2ccc(F)cc2)cc1OC,AC50,[1],"2.24 µM [rising, partial curve, poor fit]"
Cc1cnn(-c2ccc3nnc(-c4ccc(Br)cc4)n3n2)c1,AC50,[1],"0.206 µM [falling, full curve]"
Nc1ccc(S(=O)(=O)Nc2nccc(/C=C/c3ccccc3F)n2)cc1,AC50,[1],"14.1 µM [rising, partial curve, poor fit]"
CC(=O)c1cc2c(cc1NC(=O)CN1CCN(c3cccc(C(F)(F)F)c3)CC1)OCO2,AC50,[1],"7.31 µM [rising, partial curve, poor fit]"
CN(C1CCCCC1)S(=O)(=O)c1ccc(=S)[nH]c1,AC50,[1],"18.4 µM [falling, partial curve]"
COc1cc(OC)cc(C(=O)Nc2ccccc2C(=O)NCc2cccnc2)c1,AC50,[1],"7.94 µM [falling, partial curve]"
CCOC(=O)C(C)/C(C)=N/NC(N)=S (stereo not drawn),AC50,[1],"16.4 µM [falling, partial curve]"
same,AC50,[2],"16.4 µM [falling, partial curve]"
Cc1ccc(S(=O)(=O)Nc2ncc(C(F)(F)F)cc2Cl)cc1,AC50,[1],"35.5 µM [falling, single point]"
COCc1cc(C)nc(OCC(=O)N/N=C/c2ccc(O)cc2O)c1C#N,AC50,[1],"17.8 µM [falling, single point]"
Nc1c(C(=O)CSc2nncn2-c2ccccc2)c(=O)[nH]c(=O)n1C1CC1,AC50,[1],"20.6 µM [rising, partial curve, poor fit]"
O=C(O)c1ccc(NC(=O)C2C3CCC(O3)C2C(=O)O)cc1 (stereo not drawn),AC50,[1],"17.8 µM [rising, partial curve, poor fit]"
O=C1N=c2ccccc2=C1c1sc(Nc2ccc(O)cc2)nc1O,AC50,[1],"11.2 µM [falling, partial curve]"
O=C(Nc1ccc2c(c1)ncn2-c1ccccc1)c1ccco1,AC50,[1],"29.1 µM [falling, single point]"
O=C(CCN=C1NS(=O)(=O)c2ccccc21)OCc1nnc(-c2ccccc2)o1,AC50,[1],"32.6 µM [falling, partial curve, poor fit]"
CCCn1c(NCc2ccc3c(c2)OCO3)nc2ccccc21,AC50,[1],"6.51 µM [rising, single point]"
Cc1ccc(-n2ncc3c(N4CCN(CCO)CC4)ncnc32)cc1Cl,AC50,[1],"3.98 µM [falling, partial curve, poor fit]"
COc1ccc(C2C(=O)c3ccccc3C2=O)cc1,AC50,[1],"0.731 µM [rising, full curve, poor fit]"
O=C(Nc1cccnc1)c1ccccc1O,AC50,[1],"5.17 µM [falling, partial curve]"
COc1ccc(-c2cc(=O)c3cc(OC)c(OC)cc3[nH]2)cc1,AC50,[1],"36.6 µM [rising, single point]"
CC(=O)c1c(C)[nH]c(C(=O)NCC2CCCCC2)c1C,AC50,[1],"10 µM [rising, partial curve, poor fit]"
CSc1cccc(NC(=O)c2ccccc2N(C)S(C)(=O)=O)c1,AC50,[1],"0.651 µM [rising, partial curve, poor fit]"
O=C(Nc1nnc(CCc2ccccc2)s1)C1CCCO1 (stereo not drawn),AC50,[1],"0.291 µM [rising, single point]"
CCOc1ccc2c(c1)n(CO)c(=S)n2CO,AC50,[1],"0.82 µM [rising, full curve, poor fit]"
CCCC(=O)NC(c1ccco1)c1cc(Cl)c2cccnc2c1O (stereo not drawn),AC50,[1],"18.4 µM [falling, partial curve, poor fit]"
O=C(CNC(=O)c1cccs1)OCc1ccc(Cl)cc1,AC50,[1],"7.08 µM [rising, partial curve]"
CC(=O)C1=C(C)NC(SCC(=O)c2ccc(Cl)c(Cl)c2)=C(C#N)C1c1ccco1 (stereo not drawn),AC50,[1],"7.08 µM [falling, full curve]"
C=CCN1C(=O)[C@]2(c3ccccc31)C1CCCC=C1C(C#N)=C(N)C2(C#N)C#N (stereo partly drawn),AC50,[1],"35.5 µM [falling, single point]"
CC(C)N(C)CCOC(=O)c1ccccc1Cl,AC50,[1],"14.6 µM [rising, partial curve, poor fit]"
Cc1ccnc(NC(=O)c2ccc(Cl)c([N+](=O)[O-])c2)c1,AC50,[1],"20 µM [falling, single point]"
O=C(CCCCCN1C(=O)[C@@H]2Cc3ccccc3CN2C1=O)Nc1ccccc1Cl,AC50,[1],"8.91 µM [falling, partial curve]"
CCCC(C)C(=O)Nc1nc(C)c(-c2csc(Nc3cc(Cl)ccc3C)n2)s1 (stereo not drawn),AC50,[1],"3.98 µM [falling, full curve]"
Cc1c(Cl)cccc1NC(=S)N1CCCN(Cc2ccccc2F)C1,AC50,[1],"20 µM [falling, single point]"
COc1cc(NC(=O)Cn2cnc(C(=O)Nc3ccc(C)c(C)c3)n2)cc(OC)c1OC,AC50,[1],"1.3 µM [rising, full curve, poor fit]"
COc1ccc(NC(=O)C2CCCN2S(=O)(=O)c2cccc3cccnc23)cc1OC (stereo not drawn),AC50,[1],"3.16 µM [rising, full curve, poor fit]"
same,AC50,[2],"4.47 µM [falling, partial curve]"
O/N=C1\CCCC\C1=C/c1ccccc1,AC50,[1],"20.6 µM [rising, partial curve, poor fit]"
O=C(CCc1nnc(CCCCc2ccccc2)o1)NCc1cc(F)ccc1F,AC50,[1],"1.58 µM [rising, partial curve, poor fit]"
Cc1cccn2c(=O)c3cc(C(=O)NC4CCCC4)n(C)c3nc12,AC50,[1],"0.562 µM [rising, full curve]"
COc1ccc2nc(NC(=O)c3ccccc3O)sc2c1,AC50,[1],"0.562 µM [falling, full curve]"
COc1ccccc1NC(=O)C(=O)NNC(=O)c1ccco1,AC50,[1],"3.16 µM [falling, full curve]"
FC(F)(F)c1cccc(Nc2nc(N3CCOCC3)nc(N3CCOCC3)n2)c1,AC50,[1],"35.5 µM [rising, single point]"
O=S(=O)(NCc1ccccc1)c1ccc(F)cc1Br,AC50,[1],"6.31 µM [rising, single point]"
O=[N+]([O-])c1cccc2ccc(/C=C/c3ccc(F)cc3)nc12,AC50,[1],"0.58 µM [rising, full curve]"
Cc1cccc(-c2noc(Cc3ccccc3)n2)c1,AC50,[1],"1.26 µM [rising, partial curve]"
CCOC(=O)c1ccc(NC(=O)C2COc3ccccc3O2)cc1 (stereo not drawn),AC50,[1],"17.8 µM [rising, partial curve]"
COc1ccc(NC(=O)c2cc(Br)c(Br)s2)cn1,AC50,[1],"14.1 µM [falling, partial curve]"
Cc1cccc(NC(=O)/C=C/c2cccs2)n1,AC50,[1],"2 µM [falling, partial curve, poor fit]"
CCCn1nc(NC(=O)C(C)(C)C)c2cc3cc(OC)ccc3nc21,AC50,[1],"20 µM [falling, single point]"
CCOC(=O)c1c(S(=O)(=O)NCC(=O)Nc2ccc(C)c(Cl)c2)c(C)n(C)c1C,AC50,[1],"15.8 µM [falling, partial curve, poor fit]"
CCCCOC(=O)c1ccc(NC(C)=O)cc1,AC50,[1],"8.91 µM [rising, partial curve, poor fit]"
NCC(c1ccccc1Cl)c1c[nH]c2ccccc12 (stereo not drawn),AC50,[1],"15.8 µM [falling, single point]"

# 4 entries from above, set out differently.
structure (smiles) | measurement | setting | value
COc1cc(OC)cc(C(=O)Nc2ccccc2C(=O)NCc2cccnc2)c1 | AC50 | [1] | 7.94 µM [falling, partial curve]
Cc1ccc(-n2ncc3c(N4CCN(CCO)CC4)ncnc32)cc1Cl | AC50 | [1] | 3.98 µM [falling, partial curve, poor fit]
CSc1cccc(NC(=O)c2ccccc2N(C)S(C)(=O)=O)c1 | AC50 | [1] | 0.651 µM [rising, partial curve, poor fit]
CC(=O)C1=C(C)NC(SCC(=O)c2ccc(Cl)c(Cl)c2)=C(C#N)C1c1ccco1 (stereo not drawn) | AC50 | [1] | 7.08 µM [falling, full curve]
